According to the supplement of paper PMC10849652:
This is one part of the list.

Sequences of proteins named here, by UniProt entry; tags and fusion partners are left off. A change or cut given only in a name is not applied to a line headed by its entry.
UniProt Q9C0C7: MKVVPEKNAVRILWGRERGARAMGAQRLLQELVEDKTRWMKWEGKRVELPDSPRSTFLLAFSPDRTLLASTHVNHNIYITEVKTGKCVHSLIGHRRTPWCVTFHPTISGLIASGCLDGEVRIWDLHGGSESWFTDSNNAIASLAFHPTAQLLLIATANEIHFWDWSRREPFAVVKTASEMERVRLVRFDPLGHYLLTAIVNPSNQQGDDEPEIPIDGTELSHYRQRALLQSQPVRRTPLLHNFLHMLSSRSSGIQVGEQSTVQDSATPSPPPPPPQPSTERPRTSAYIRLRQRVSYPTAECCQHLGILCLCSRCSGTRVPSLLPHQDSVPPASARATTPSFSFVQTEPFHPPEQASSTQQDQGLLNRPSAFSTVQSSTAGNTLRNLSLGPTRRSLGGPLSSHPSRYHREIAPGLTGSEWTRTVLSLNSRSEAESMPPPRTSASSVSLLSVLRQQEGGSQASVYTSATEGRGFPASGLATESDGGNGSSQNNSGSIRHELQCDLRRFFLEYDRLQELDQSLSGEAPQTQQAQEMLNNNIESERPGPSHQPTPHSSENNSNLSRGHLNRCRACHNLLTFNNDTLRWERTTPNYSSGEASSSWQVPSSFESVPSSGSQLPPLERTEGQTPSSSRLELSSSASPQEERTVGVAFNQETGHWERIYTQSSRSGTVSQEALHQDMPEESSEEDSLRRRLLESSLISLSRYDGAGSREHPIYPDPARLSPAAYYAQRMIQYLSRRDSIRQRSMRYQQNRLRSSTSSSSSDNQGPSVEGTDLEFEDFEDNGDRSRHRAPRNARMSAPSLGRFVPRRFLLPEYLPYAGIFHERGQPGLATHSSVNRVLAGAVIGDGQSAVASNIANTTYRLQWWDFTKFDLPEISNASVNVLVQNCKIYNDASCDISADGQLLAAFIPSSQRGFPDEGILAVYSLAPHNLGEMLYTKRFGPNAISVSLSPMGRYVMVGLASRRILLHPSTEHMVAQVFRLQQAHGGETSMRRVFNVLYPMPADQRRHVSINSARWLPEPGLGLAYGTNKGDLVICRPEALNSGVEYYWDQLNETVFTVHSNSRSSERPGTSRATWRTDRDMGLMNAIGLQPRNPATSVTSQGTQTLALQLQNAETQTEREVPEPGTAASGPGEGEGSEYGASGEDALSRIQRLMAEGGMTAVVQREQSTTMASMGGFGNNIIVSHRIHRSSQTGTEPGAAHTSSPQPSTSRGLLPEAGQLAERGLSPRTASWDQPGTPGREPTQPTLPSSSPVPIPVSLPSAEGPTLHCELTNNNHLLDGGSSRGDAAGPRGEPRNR
UniProt Q8IY63: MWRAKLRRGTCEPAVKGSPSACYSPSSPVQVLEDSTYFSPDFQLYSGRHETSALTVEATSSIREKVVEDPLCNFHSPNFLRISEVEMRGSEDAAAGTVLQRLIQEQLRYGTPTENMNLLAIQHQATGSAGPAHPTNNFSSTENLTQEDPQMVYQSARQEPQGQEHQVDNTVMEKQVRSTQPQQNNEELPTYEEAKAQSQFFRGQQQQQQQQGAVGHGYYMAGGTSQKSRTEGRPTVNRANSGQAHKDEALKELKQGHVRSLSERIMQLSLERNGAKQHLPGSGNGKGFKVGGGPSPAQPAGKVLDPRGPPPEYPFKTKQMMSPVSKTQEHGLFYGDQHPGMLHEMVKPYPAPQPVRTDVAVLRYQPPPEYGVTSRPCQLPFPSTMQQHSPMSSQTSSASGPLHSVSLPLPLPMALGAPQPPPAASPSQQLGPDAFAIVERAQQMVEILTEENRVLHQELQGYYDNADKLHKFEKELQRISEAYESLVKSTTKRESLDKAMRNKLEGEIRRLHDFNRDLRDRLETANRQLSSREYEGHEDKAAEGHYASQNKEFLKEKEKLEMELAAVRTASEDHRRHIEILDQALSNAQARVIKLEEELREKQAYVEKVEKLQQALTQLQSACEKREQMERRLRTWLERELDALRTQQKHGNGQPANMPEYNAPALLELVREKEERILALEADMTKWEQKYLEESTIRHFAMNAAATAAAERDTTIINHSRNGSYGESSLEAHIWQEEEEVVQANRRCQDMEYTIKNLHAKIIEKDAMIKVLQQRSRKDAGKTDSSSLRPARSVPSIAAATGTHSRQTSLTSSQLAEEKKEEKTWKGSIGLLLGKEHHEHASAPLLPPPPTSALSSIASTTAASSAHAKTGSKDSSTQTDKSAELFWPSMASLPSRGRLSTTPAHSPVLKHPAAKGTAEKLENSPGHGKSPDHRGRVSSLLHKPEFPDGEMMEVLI
UniProt Q6P6B7: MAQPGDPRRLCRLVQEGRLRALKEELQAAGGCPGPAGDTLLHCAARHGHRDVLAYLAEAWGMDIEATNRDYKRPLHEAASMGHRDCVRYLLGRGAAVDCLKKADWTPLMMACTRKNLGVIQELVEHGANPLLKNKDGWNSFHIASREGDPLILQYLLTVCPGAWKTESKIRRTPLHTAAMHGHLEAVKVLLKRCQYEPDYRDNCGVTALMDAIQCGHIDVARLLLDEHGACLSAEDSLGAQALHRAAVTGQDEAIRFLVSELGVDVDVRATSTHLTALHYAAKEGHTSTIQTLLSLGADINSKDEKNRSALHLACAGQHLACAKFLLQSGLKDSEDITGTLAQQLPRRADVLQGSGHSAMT
UniProt Q86W74: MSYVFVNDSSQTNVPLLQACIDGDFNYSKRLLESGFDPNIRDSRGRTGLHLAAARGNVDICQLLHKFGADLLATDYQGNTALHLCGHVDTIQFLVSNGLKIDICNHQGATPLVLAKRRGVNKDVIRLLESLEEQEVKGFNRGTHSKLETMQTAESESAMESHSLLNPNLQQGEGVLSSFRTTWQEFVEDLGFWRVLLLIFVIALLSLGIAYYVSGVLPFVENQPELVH
UniProt P51648: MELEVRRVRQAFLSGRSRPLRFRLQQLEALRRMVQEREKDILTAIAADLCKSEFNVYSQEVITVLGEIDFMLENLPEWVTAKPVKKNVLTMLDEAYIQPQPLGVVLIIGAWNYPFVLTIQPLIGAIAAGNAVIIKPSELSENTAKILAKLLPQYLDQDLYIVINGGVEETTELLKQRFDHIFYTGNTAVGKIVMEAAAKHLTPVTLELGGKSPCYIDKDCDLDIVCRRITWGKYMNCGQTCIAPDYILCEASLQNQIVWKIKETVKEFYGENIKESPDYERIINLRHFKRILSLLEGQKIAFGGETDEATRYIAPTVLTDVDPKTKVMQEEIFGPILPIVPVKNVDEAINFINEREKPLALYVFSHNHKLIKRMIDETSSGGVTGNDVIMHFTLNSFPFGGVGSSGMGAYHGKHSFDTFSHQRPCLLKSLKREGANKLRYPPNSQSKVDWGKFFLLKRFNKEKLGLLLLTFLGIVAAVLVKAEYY
UniProt P47895: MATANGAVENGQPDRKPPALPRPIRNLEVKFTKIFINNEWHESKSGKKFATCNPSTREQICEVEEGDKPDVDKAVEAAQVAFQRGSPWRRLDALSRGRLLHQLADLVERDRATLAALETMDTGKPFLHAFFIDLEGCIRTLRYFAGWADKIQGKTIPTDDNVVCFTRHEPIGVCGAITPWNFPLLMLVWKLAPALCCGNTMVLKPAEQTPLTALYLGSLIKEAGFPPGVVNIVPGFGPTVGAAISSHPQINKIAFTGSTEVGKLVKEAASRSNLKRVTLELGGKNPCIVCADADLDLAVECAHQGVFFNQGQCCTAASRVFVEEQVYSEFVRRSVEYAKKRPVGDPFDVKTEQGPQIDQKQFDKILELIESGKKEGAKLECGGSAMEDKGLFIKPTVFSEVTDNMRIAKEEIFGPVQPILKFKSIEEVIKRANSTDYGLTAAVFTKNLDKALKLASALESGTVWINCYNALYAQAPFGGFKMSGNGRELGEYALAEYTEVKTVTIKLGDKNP
UniProt A1A5B4: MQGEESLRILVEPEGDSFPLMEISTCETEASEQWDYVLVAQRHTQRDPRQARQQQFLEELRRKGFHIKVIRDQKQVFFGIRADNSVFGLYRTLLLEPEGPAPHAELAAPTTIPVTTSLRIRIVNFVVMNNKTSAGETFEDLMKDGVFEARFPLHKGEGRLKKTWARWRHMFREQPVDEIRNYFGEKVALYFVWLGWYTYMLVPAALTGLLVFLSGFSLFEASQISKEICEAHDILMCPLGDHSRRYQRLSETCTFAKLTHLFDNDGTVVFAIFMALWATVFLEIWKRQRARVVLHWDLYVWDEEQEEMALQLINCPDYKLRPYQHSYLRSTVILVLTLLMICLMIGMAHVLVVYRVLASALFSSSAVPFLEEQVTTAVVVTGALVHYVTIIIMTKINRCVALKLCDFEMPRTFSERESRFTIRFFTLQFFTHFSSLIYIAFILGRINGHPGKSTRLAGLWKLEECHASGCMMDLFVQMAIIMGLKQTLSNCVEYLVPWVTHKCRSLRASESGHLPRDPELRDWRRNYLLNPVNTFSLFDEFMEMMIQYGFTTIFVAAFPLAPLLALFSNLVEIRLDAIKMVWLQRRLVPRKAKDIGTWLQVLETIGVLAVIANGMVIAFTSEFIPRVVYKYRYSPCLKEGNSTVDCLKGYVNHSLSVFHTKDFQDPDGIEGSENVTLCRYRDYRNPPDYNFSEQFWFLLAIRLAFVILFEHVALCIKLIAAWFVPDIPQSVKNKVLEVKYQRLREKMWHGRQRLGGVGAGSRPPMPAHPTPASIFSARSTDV
UniProt Q9NYG5, whole entry, looked up: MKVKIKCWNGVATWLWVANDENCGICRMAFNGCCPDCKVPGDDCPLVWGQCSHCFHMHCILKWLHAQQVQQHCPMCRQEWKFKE
UniProt Q96F25: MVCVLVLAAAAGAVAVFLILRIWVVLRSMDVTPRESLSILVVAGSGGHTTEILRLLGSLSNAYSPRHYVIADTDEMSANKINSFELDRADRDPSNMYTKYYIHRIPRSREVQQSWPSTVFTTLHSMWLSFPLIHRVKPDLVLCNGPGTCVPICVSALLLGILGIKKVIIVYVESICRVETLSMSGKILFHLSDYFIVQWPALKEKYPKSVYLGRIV
UniProt Q10567: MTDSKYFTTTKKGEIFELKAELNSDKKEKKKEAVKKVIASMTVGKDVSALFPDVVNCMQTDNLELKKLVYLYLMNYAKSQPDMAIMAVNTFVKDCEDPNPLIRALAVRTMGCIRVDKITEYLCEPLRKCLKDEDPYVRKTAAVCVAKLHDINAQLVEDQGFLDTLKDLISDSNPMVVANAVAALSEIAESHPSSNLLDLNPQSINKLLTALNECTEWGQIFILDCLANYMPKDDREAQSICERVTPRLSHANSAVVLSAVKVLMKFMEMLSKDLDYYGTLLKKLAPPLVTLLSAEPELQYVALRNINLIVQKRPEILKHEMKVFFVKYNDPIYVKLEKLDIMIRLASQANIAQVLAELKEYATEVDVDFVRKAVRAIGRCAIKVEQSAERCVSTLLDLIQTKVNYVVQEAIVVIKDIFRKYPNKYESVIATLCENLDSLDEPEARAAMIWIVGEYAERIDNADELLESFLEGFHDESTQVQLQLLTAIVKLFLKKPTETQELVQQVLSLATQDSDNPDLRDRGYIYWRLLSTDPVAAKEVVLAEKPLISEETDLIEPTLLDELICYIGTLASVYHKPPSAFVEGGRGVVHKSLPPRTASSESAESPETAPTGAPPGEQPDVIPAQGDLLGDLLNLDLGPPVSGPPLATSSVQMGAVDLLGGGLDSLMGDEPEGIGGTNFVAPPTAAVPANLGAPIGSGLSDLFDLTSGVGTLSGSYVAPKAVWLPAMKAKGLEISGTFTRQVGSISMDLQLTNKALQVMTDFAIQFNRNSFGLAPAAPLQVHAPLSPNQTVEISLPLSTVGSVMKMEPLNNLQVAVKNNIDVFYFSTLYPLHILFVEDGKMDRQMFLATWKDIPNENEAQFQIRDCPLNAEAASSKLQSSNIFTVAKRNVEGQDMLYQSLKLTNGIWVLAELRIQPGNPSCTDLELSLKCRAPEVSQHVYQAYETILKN
UniProt Q8N6S4: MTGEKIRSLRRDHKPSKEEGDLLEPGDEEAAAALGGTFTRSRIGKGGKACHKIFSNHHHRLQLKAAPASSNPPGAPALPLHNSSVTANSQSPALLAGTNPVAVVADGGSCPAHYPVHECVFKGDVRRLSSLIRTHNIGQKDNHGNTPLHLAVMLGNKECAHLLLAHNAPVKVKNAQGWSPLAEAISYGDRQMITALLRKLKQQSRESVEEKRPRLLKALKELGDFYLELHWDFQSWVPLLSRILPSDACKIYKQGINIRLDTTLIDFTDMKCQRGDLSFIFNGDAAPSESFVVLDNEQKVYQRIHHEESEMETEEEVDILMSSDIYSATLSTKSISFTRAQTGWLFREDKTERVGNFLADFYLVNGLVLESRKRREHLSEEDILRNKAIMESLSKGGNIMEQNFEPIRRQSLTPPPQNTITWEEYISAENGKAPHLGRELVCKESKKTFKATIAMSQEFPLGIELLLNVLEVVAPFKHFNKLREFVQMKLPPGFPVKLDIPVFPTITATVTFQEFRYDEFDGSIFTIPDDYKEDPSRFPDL

Key:
Assay in all cases: log2 fold change, soluble protein after heating vs DMSO (PISA); higher = thermal stabilisation; K562 lysate, 10 uM; active = over 0.2 and 3.5 SD of the protein, either way, in both replicates (recomputed)
vemurafenib = compound: CCCS(=O)(=O)Nc1ccc(F)c(C(=O)c2c[nH]c3ncc(-c4ccc(Cl)cc4)cc23)c1F [vemurafenib]
In short: (§1)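 To prepare the extract, K562 pellets were dounce-homogenised in PBS pH 7.4 with 1 mM MgCl2, giving crude material at 1 mg/mL protein. This was treated with 10 μM compound for 30 min, then heated in aliquots for 3 min over 48°C-58°C before pooling and addition of NP-40 to 0.5% at 4°C. Centrifugation at 21,000xg for 90 min left soluble protein in the supernatant, which TMTpro 16plex LC-MS/MS quantified with equalised channel sums. Results are log-two fold changes in thermal stability compared with solvent controls, from duplicates.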

[1] = compound: CCCS(=O)(=O)Nc1ccc(F)c(C(=O)c2c[nH]c3ncc(Cl)cc23)c1F
In short: as §1

[2] = compound: CC[C@@H]1C(=O)N(C)c2cnc(Nc3ccc(C(=O)NC4CCN(C)CC4)cc3OC)nc2N1C1CCCC1
In short: as §1

volasertib = compound: CC[C@@H]1C(=O)N(C)c2cnc(Nc3ccc(C(=O)N[C@H]4CC[C@H](N5CCN(CC6CC6)CC5)CC4)cc3OC)nc2N1C(C)C [volasertib]
In short: as §1

[3] = compound: CCn1c(C(=O)N(C2CC2)C2CC2)cc2c3c(ncn3C)c(Nc3cc(C)n(C)n3)nc21
In short: as §1

[4] = compound: CCn1cc(-c2ccnc3[nH]c(-c4cccc(CN(C)C)c4)cc23)c(-c2ccc(NC(=O)N(C)C)cc2)n1
In short: as §1

[5] = compound: CN1CCC(CNc2ccc3ncc(-c4cccc(OC(F)(F)F)c4)n3n2)CC1
In short: as §1

saracatinib = compound: CN1CCN(CCOc2cc(OC3CCOCC3)c3c(Nc4c(Cl)ccc5c4OCO5)ncnc3c2)CC1 [saracatinib]
In short: as §1

sotrastaurin = compound: CN1CCN(c2nc(C3=C(c4c[nH]c5ccccc45)C(=O)NC3=O)c3ccccc3n2)CC1 [sotrastaurin]
In short: as §1

barasertib = compound: CCN(CCCOc1ccc2c(Nc3cc(CC(=O)Nc4cccc(F)c4)[nH]n3)ncnc2c1)CCOP(=O)(O)O [barasertib]
In short: as §1

Measured: log2 fold change

AMBRA1 isoform 5 (UniProt Q9C0C7)
inactive: vemurafenib 0.041 | [1] -0.041 | [2] 0.019 | volasertib -0.039 | [3] 0.012 | [4] -0.086 | [5] 0.048 | saracatinib -0.06 | sotrastaurin 0.063

AMOTL1 (UniProt Q8IY63)
inactive: vemurafenib 0.334 | barasertib 0.02 | [2] -0.034 | [3] -0.047 | [4] -0.077 | [5] -0.025 | saracatinib -0.188 | sotrastaurin 0.012

ANKRD40 (UniProt Q6AI12)
inactive: vemurafenib 0.501 | barasertib -0.091 | [2] -0.118 | [3] -0.066 | [4] 0.094 | [5] -0.075 | saracatinib -0.101 | sotrastaurin 0.012

ALG10B (UniProt Q5I7T1)
inactive: [1] 0.039 | barasertib -0.024 | volasertib -0.06 | [3] 0.007 | [4] -0.117 | [5] 0.011 | saracatinib 0.098 | sotrastaurin 0.054

AMMECR1L (UniProt Q6DCA0)
inactive: vemurafenib -0.011 | [2] 0.01 | [3] -0.076 | [4] -0.034 | [5] 0.125 | saracatinib -0.091 | sotrastaurin -0.054

ALAS1 (UniProt P13196)
inactive: [1] 0.072 | barasertib -0.47 | [2] 0.128 | volasertib -0.017 | [3] 0.008 | [4] 0.026 | [5] 0.064 | saracatinib -0.141

ANP32E isoform 3 (UniProt Q9BTT0)
active: [4] -0.724
inactive: vemurafenib 0.034 | barasertib -0.086 | [2] -0.026 | [5] 0.468

ANAPC16 (UniProt Q96DE5)
inactive: vemurafenib -0.071 | [1] 0.006 | [2] 0.216 | volasertib 0.003 | [3] 0.124 | [4] 0.005 | [5] -0.134 | saracatinib 0.109 | sotrastaurin -0.01

AP1S3 isoform 4 (UniProt Q96PC3)
inactive: [1] -0.016 | barasertib -0.365 | volasertib -0.101 | [3] 0.082 | [4] -0.16 | [5] -0.002 | saracatinib -0.047

ANKRD16 (UniProt Q6P6B7)
inactive: [1] -0.009 | barasertib -0.038 | [2] -0.041 | volasertib 0.1 | [4] 0.082 | [5] -0.139 | saracatinib -0.039 | sotrastaurin 0.048

ANKRD30A (UniProt Q9BXX3)
inactive: [1] 0.111 | barasertib 0.087 | [2] -0.102 | volasertib -0.08 | [3] 0.152 | [4] 0.262 | [5] 0.891 | saracatinib 0.072 | sotrastaurin 0.032

AP4M1 (UniProt O00189)
inactive: vemurafenib 0.106 | barasertib 0.052 | [2] 0.23 | [3] -0.018 | [4] 0.224 | [5] -0.005 | saracatinib -0.043 | sotrastaurin -0.041

ANKS3 (UniProt Q6ZW76)
inactive: vemurafenib 0.006 | [1] -0.063 | barasertib 0.196 | [2] 0.166 | volasertib 0.018 | [4] 0.039 | [5] -0.013 | saracatinib -0.127 | sotrastaurin -0.04

ALKBH1 (UniProt Q13686)
inactive: vemurafenib 0.069 | [2] -0.05 | [3] -0.043 | [4] 0.015 | [5] -0.072 | saracatinib -0.037

AMFR (UniProt Q9UKV5)
inactive: vemurafenib 0.044 | [2] -0.049 | [3] -0.027 | [4] -0.191 | [5] 0.03 | saracatinib 0.048 | sotrastaurin 0.008

ANKRD46 (UniProt Q86W74)
inactive: vemurafenib 0.103 | [3] 0.018 | [4] -0.237 | [5] -0.058 | saracatinib 0.029 | sotrastaurin -0.148

ANKS6 isoform 4 (UniProt Q68DC2)
inactive: [2] 0.029 | [3] 0.062 | saracatinib -0.044 | sotrastaurin 0.1

ANGEL1 (UniProt Q9UNK9)
inactive: [3] -0.45 | [4] -0.365 | [5] -0.001 | sotrastaurin -0.119

AP1G1 (UniProt H3BV30)
inactive: [1] -0.131 | volasertib 0.091

ALG11 (UniProt Q2TAA5)
inactive: barasertib 0.188 | [3] 0.096 | [4] -0.071 | [5] 0.041 | saracatinib -0.024 | sotrastaurin 0.005

ANKHD1 (UniProt D6RHC4)
inactive: [1] -0.113 | volasertib -0.093 | [3] 0.027 | saracatinib 0

ALDH3A2 isoform 2 (UniProt P51648)
inactive: [3] 0.069 | [4] -0.15 | [5] 0.084 | saracatinib 0.843

ANKRD13B (UniProt Q86YJ7)
inactive: [1] -0.119 | [2] -0.065 | volasertib -0.027 | saracatinib -0.21

AMN1 (UniProt Q8IY45)
inactive: [1] -0.007 | volasertib -0.105 | [4] -0.105 | [5] 0.003

AP2M1 (UniProt C9JTK4)
inactive: [3] -0.229

ALDH1A3 (UniProt P47895)
inactive: [2] -0.002

ANO9 (UniProt A1A5B4)
inactive: [3] 0.113 | saracatinib -0.038

ANAPC11 (UniProt Q9NYG5)
inactive: barasertib 0.053 | [3] 0.016 | [4] 0.392 | [5] -0.398 | saracatinib 0.115 | sotrastaurin -0.083

ALDH3A1 (UniProt P30838)
inactive: [1] 0.014 | volasertib 0.035 | [3] -0.399 | [4] -0.618 | [5] 0.216 | sotrastaurin -0.007
active: saracatinib 1.2

ALG13 isoform 2 (UniProt Q9NP73)
inactive: [4] 0.016 | [5] -0.098

ANKHD1 isoform 2 (UniProt Q8IWZ3)
inactive: barasertib -0.012 | [2] -0.013 | [3] 0.08 | [4] 0.077 | [5] -0.083 | saracatinib 0.002 | sotrastaurin 0.056

ANKRD12 (UniProt Q6UB98)
inactive: [2] 0.054 | [3] -0.03

ALAS2 (UniProt P22557)
inactive: sotrastaurin 0.039

Three records drawn at random from the list so far, as already listed:
ANAPC11 (UniProt Q9NYG5)
inactive: barasertib 0.053 | [3] 0.016 | [4] 0.392 | [5] -0.398 | saracatinib 0.115 | sotrastaurin -0.083

ANKHD1 isoform 2 (UniProt Q8IWZ3)
inactive: barasertib -0.012 | [2] -0.013 | [3] 0.08 | [4] 0.077 | [5] -0.083 | saracatinib 0.002 | sotrastaurin 0.056

ALG13 isoform 2 (UniProt Q9NP73)
inactive: [4] 0.016 | [5] -0.098

(listing goes on)

ANKRD39 (UniProt Q53RE8)
inactive: [4] -0.057 | [5] -0.057 | saracatinib 0.019 | sotrastaurin -0.058

AKTIP isoform 2 (UniProt Q9H8T0)
inactive: [1] -0.075 | [2] -0.037 | volasertib -0.116 | [3] 0.234 | saracatinib 0.029

ANKRD50 (UniProt Q9ULJ7)
inactive: [1] -0.009 | [2] 0.075 | volasertib 0.008 | [3] 0.069 | [4] -0.171 | [5] 0.158 | sotrastaurin -0.068

AP3S2 (UniProt P59780)
inactive: [1] 0.032 | volasertib -0.041

AMOT (UniProt Q4VCS5)
inactive: [2] 0.009 | [3] -0.075 | saracatinib -0.048 | sotrastaurin -0.015

AKT1S1 (UniProt M0R2V8)
inactive: [1] -0.044 | volasertib 0.022

ALOX5 (UniProt P09917)
inactive: [4] 0.092 | [5] 0.215

ANK2 (UniProt Q01484)
inactive: barasertib 0.184 | [3] 0.027 | [4] -0.001 | [5] -0.075 | saracatinib -0.019 | sotrastaurin 0.085

ALKBH7 (UniProt Q9BT30)
inactive: [2] -0.031 | [3] 0.072 | [4] 0.233 | [5] -0.2 | saracatinib -0.012 | sotrastaurin -0.016

ALG14 (UniProt Q96F25)
inactive: [1] 0.077 | volasertib -0.053

ALOX12B (UniProt O75342)
inactive: barasertib 0.109 | [3] -0.043 | [4] 0.179 | [5] 0.145 | sotrastaurin 0.009

AP1B1 isoform 3 (UniProt Q10567)
inactive: barasertib -0.069 | [3] 0.109 | sotrastaurin 0.069

ANXA6 (UniProt E5RK69)
inactive: [1] -0.092 | [2] -0.061 | volasertib -0.108 | saracatinib -0.025 | sotrastaurin 0.278

AP2M1 (UniProt C9JPV8)
inactive: [1] -0.267 | volasertib -0.05

ANKS1B (UniProt Q7Z6G8)
inactive: [1] 0.071 | volasertib 0.033

ANKIB1 (UniProt Q9P2G1)
inactive: [3] 0.111

ANAPC15 isoform 2 (UniProt P60006)
inactive: [2] 0.185 | [4] -0.212 | [5] -0.084 | saracatinib -0.147 | sotrastaurin -0.022

ANKRD13C (UniProt Q8N6S4)
inactive: barasertib 0.078 | [3] -0.07
